Tested on: mitochondria or chloroplast of Chlamydomonas reinhardtii
Test: not given
Settings: native Chlamydomonas reinhardtii targeting peptide (Type Cr mTP / Cr cTP); localisation as annotated in the data set, not a Venus construct tested here; cited from earlier work

| Substance | Localisation |
| --- | --- |
| MQAKMQTRAVSGRAAARSRVSTTKVVC [cTPCHL19] | Chloroplast |
| MQALASHRTLATPARPRALGCASLPFRPIGAQAMRRPAREGAVTVHARSGGYSAPGGGRGYSSTPGIVDRVLAALPY [cTPCHL4] | Chloroplast |
| MQALATRPSAIRPTKAARRSSVVVRA [cTPCHL14] | Chloroplast |
| MQALRRAVSTAMPGFRR [mTPCHL30] | Mitochondria |
| MQMQQQRMRFSRDARRIG [cTPCHL8] | Chloroplast |
| MQRSILSALLPRLPLGVREF [mTPCHL11] | Mitochondria |
| MQRSTELVGAFQRAGAALASPAASRQ [mTPCHL34] | Mitochondria |
| MQRTGGLVSQLAGAQLTGALQELKTGVLLAF [mTPCHL23] | Mitochondria |
| MQRTVQGISQLARALSSAHAVAGQRCFA [mTPCHL15] | Mitochondria |
| MQSLASRPCVLRAQRPFTAKRSSVVRVRA [cTPCHL21] | Chloroplast |
| MQTKAFTSARPQRAAALKAQRTSSVTVRA [cTPCHL23] | Chloroplast |
| MQTLASRPSLRASARVAPRRAPRVAVVTKA [cTPCHL24] | Chloroplast |
| MQTLSVKSTRASVVPRRGRATTVAVKA [cTPCHL20] | Chloroplast |
| MQTMRVAFRPAATSRSTVVTRA [cTPCHL10] | Chloroplast |
| MQTTLKQQRASGRVSARQPFRSAAVARPRRSTVRVQA [cTPCHL33] | Chloroplast |
| MQVSFARSTVSRARAGISGRTSRRTHVAVSN [cTPCHL25] | Chloroplast |
| MRLAAQRSRGLLAPGARFLRTSAASA [mTPCHL26] | Mitochondria |
| MRLLVACALLALLQLSAAVRLPAAIEQAVGRQLL [cTPCHL30] | Chloroplast |
| MRRQAVTCLRGLWRAGSASQEVANQAGASSFALQGLLAQTERGLRTSVDAKDAKIAPLSAMPWSLQAARS [mTPCHL10] | Mitochondria |
| MRRSAARLLRGVGQAVARSGEVAEASAVKLFDINASRGLSAQTLSMLGALSHAATPLPSGFAASGIRS [mTPCHL5] | Mitochondria |
| MRSAAVRVLGAQWAGVGAQEAGSRAARAF [mTPCHL16] | Mitochondria |
| MRSLKQILRIGEASSLGLRAF [mTPCHL33] | Mitochondria |
| MRSQALSLARAGLLQLSSQTGASLEGGFALSKRAEQALIRASRAF [mTPCHL18] | Mitochondria |
| MSMCIARGSVRGCARPVVAQHRPARSRVVSIAC [cTPCHL28] | Chloroplast |
| MSSATRNVLSMLPALGRVGAQQAAGAAASLLFTRGY [mTPCHL6] | Mitochondria |
| MSSRNVATALRMFATLGRSQAGEASAMMGTGSALLAQRAAALGGASAVNKGCSCRCGRVACMGACMPMRH [mTPCHL29] | Mitochondria |
| MSSTATMPGQRSAMKAAGAQSRRAVKVMA [cTPCHL22] | Chloroplast |
| MVAVRGRRALAVRA [cTPCHL6] | Chloroplast |
| MVQALCSAGAARRGGRQAYSFLASLLSQQRGF [mTPCHL4] | Mitochondria |
| MWEEECKNMQASKKRSS [cTPCHL7] | Chloroplast |

Tested on: mitochondria or chloroplast of Chlamydomonas reinhardtii
Test: Subcellular localization of Venus reporter by epifluorescence microscopy (manual targeting assignment)
Assay type: cell-based
Settings: Type HA-RAMP; set to which the native HA-RAMP is assigned (mt-set or cp-set)
From the text: In a bid to keep peptidase recognition sites intact, C-terminal elements were designed to start 10 residues upstream of the cleavage site, even though this slightly truncates TP helices. Peptides carrying the 15-amino-acid cTP N-terminus (cTP-N) will be denoted ^cP. Similarly, peptides with C-terminal elements from RCA1-cTP (cTP-C) or CAG2-mTP (mTP-C) will be denoted P^c or P^m, respectively. Peptide variants are used to drive the subcellular localization of a Venus fluorescent reporter protein, which was assessed using fluorescence microscopy; in Figure 2, an executive overview of observed Venus localization is presented for all constructs. […] Here, we use automated image segmentation to validate our subcellular localization assessment (Supplemental Figure 2, Supplemental text). […] The reader will be asked to return to Figure 2 throughout, with Figures 3 and 4 providing selected micrographs as examples highlighting particular points of interest.
Chlamydomonas TP sequences were amplified from genomic DNA extracted from strain T222+ (CC-5101). Templates for codon-optimized HA-RAMP, RP, and R→K modified TP sequences were obtained by gene synthesis (Eurofins Genomics). Correct assembly was verified by sequencing (Eurofins Genomics). Linear transformation cassettes were generated through restriction digestion with EcoRV (New England Biolabs).
Constructs were transformed into wild-type strain T222+ (CC-5101) using a protocol described previously ([Onishi and Pringle, 2016]), except using 4 μl of DNA at 2 μg/μl.
Strains with suspected mitochondrial targeting were treated with 0.1 μM MitoTracker Red CMXRos (Thermo Fisher Scientific) in growth medium for 30 min in the dark and washed with TAP prior to taking images.
Legend for Fig. S3 – S20. Three independent transformant lines (Strains 1-3) are shown for each combination of modifications (A-L), represented by a cartoon and a shorthand description (cf. Fig.
2). Where a construct was interpreted as generating reporter localization in mitochondria or […]
Epifluorescence microscopy images of typical cells for each strain are shown. MitoTracker fluorescence, false-coloured in cyan, indicates the position of mitochondria (although parts of the cell exterior are sometimes also stained). False-coloured yellow fluorescence from the Venus channel reports on the subcellular localization of the fluorescent reporter. Chlorophyll autofluorescence, shown in magenta, indicates the location of the chloroplast. Scale bars are 5µm. Brightness (Br.) was adjusted for clarity: fluorescence intensity values were restricted to the range shown for each channel by matching coloured rectangles. Intensity scales to 0 at the bottom of the panel, and to 65535 at the top.
On the right-hand side, quantitative information associated with each construct is shown. Data was normalized such that averages range from 0 to 1 across all constructs (cf. Fig S2). Individual cell measurements may exceed this range; for clarity, the range shown here is limited to -0.5 to 1.5, with outliers that have more extreme values shown as lying beyond a dashed line. Strain 1 is plotted as circles, strain 2 as squares, and strain 3 as diamonds. Venus: Fluorescence plate reader data of transformants screened for this construct (Venus fluorescence, accounting for cell density using linear regression of OD750 and chlorophyll fluorescence trained on ‘no venus’ control transformants). Transformants that were not selected after screening are shown as small grey circles. A colour code ranging from white (low Venus fluorescence) to black (high Venus fluorescence) is used for strains 1-3 and the average thereof. Automated image quantification data: pyr/chl: Venus channel signal in the pyrenoid relative to in the chlorophyll region; mt/cell: Venus channel signal in mitochondria relative to the whole cell. Each point corresponds to a single cell.
The colour code code is the same as that below distributions in Fig. S2, i.e. blue highlights the […]

| Substance | Localisation |
| --- | --- |
| GIGKFLHSAKKFGKAFVGEIMNS [MII, magainin 2, HA-RAMP antimicrobial peptide, reference compound] | mt-set |
| GKIPVKAIKKAGAAIGKGLRAINIASTAHDVYSFFKPKHKKK [SIM, SI moricin, HA-RAMP antimicrobial peptide, reference compound] | cp-set |
| GLFSKFNKKKIKSGLIKIIKTAGKEAGLEALRTGIDVIGCKIKGEC [E1S, esculentin-1SEA, HA-RAMP antimicrobial peptide, reference compound] | cp-set |
| KYYGNGVHCTKSGCSVNWGEAFSAGVHRLANGGNGFW [LCA, leucocin A, HA-RAMP antimicrobial peptide, reference compound] | cp-set |
| KYYGNGVSCNKKGCSVDWGKAIGIIGNNAAANLTTGGKAGWKG [EHF, enterocin HF, HA-RAMP antimicrobial peptide, reference compound] | cp-set |
| SFLTTFKDLAIKAAKSAGQSVLSTLSCKLSNTC [B2I, brevinin-2ISb, HA-RAMP antimicrobial peptide, reference compound] | mt-set |
| VNYGNGVSCSKTKCSVNWGIITHQAFRVTSGVASG [B15, bacillocin 1580, HA-RAMP antimicrobial peptide, reference compound] | cp-set |
| ranatuerin-2G [R2GK, reference compound] | mt-set |

— paper PMC10363480 (Plant Communications, 2023)
